The list shows a part of the results. Many values rest on one well or one pass, so single values are uncertain.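 The apoptosis fraction was the count of cleaved-PARP antibody-stained nuclei relative to all DNA-stained nuclei, imaged in 1,536-well plates. Screening doses were set so most cells survived, and baseline and induced cleaved-PARP levels vary greatly across cell lines.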
These compounds were tested on SkMel30 (assay: cleaved PARP positive nuclei fraction relative to DMSO control; melanoma cells; higher = more apoptosis). Conditions: library dose: low library concentration; 72 h.

Compared with `O=C(O)[C@@H]1[O][Sb](=[O])([O][Sb]2(=[O])[O][C@H]([C@H](O)CO)[C@H](O)[C@H](C(=O)O)[O]2)[O][C@H]([C@H](O)CO)[C@@H]1O` (stereo not given in full) [stibogluconate] + OCCn1cc(-c2cnc3nnn(Cc4ccc5ncccc5c4)c3n2)cn1 [PF04217903] (first compound 2 µM, partner dose 1 µM), `Nc1nc(F)nc2c1ncn2[C@@H]1O[C@H](CO)[C@@H](O)[C@@H]1O` [fludarabine] + CO[C@@H]1[C@H](N(C)C(=O)c2ccccc2)C[C@H]2O[C@]1(C)n1c3ccccc3c3c4c(c5c6ccccc6n2c5c31)C(=O)NC4 [Midostaurin] (first compound 0.2 µM, partner dose 0.08 µM) is higher in “cleaved PARP positive nuclei fraction” value: 66.8% for the first, 5680% for the second.

Compared with `C[C@@H](Oc1cc(-c2cnn(C3CCNCC3)c2)cnc1N)c1c(Cl)ccc(F)c1Cl` [Crizotinib] + Oc1cc(-c2nc(-c3ccccc3)[nH]c2-c2ccncc2)ccc1Cl [L779450] (first compound 0.2 µM, partner dose 0.2 µM), `CCCS(=O)(=O)Nc1ccc(F)c(C(=O)c2c[nH]c3ncc(Cl)cc23)c1F` + COc1cc2ncnc(Nc3ccc(Oc4ccccc4)cc3)c2cc1OC [SrcI1] (first compound 0.08 µM, partner dose 2 µM) is lower in “cleaved PARP positive nuclei fraction” value: 150% for the first, 117% for the second.

First: C[C@@H](Oc1cc(-c2cnn(C3CCNCC3)c2)cnc1N)c1c(Cl)ccc(F)c1Cl [Crizotinib] + CCCCCCCCCCCC1=C(O)C(=O)C=C(O)C1=O [Embelin] (first compound 0.2 µM, partner dose 1.2 µM)
Second: CN1CCN(c2ccc3nc(-c4c(N)c5c(F)cccc5[nH]c4=O)[nH]c3c2)CC1 [Dovitinib] + Oc1cc(-c2nc(-c3ccccc3)[nH]c2-c2ccncc2)ccc1Cl [L779450] (first compound 0.1 µM, partner dose 0.2 µM)
The “cleaved PARP positive nuclei fraction” value of the first is lower: 72.3% for the first, 179% for the second.

Going from `Nc1ncn([C@H]2C[C@H](O)[C@@H](CO)O2)c(=O)n1` [decitabine] + O=C(Nc1ccccc1)c1cc([N+](=O)[O-])ccc1Cl [GW9662] (first compound 0.1 µM, partner dose 2 µM) to `Nc1ccn([C@@H]2O[C@H](CO)[C@@H](O)C2(F)F)c(=O)n1` [gemcitabine] + C=CCn1c(=O)c2cnc(Nc3ccc(N4CCN(C)CC4)cc3)nc2n1-c1cccc(C(C)(C)O)n1 [MK1775] (first compound 0.0004 µM, partner dose 0.02 µM), the “cleaved PARP positive nuclei fraction” value rises from 176% to 245%.

First: C[C@@H](Oc1cc(-c2cnn(C3CCNCC3)c2)cnc1N)c1c(Cl)ccc(F)c1Cl [Crizotinib] + O=c1cc(-c2cccc3c2Sc2ccccc2S3)oc(N2CCOCC2)c1 [KU55933] (first compound 0.2 µM, partner dose 1 µM)
Second: Cc1cc(Nc2cc(N3CCN(C)CC3)nc(/C=C/c3ccccc3)n2)n[nH]1 + N#Cc1c(O)c2c(-c3ccc(-c4ccccc4O)cc3)csc2[nH]c1=O [A769662] (first compound 0.04 µM, partner dose 2 µM)
The “cleaved PARP positive nuclei fraction” value of the first is lower: 46.9% for the first, 75.8% for the second.

First: CS(=O)(=O)CCNCc1ccc(-c2ccc3ncnc(Nc4ccc(OCc5cccc(F)c5)c(Cl)c4)c3c2)o1 [lapatinib] + OCCn1cc(-c2cnc3nnn(Cc4ccc5ncccc5c4)c3n2)cn1 [PF04217903] (first compound 0.8 µM, partner dose 1 µM)
Second: O=C(O)c1ccc2c(c1)nc(Nc1cccc(Cl)c1)c1ccncc12 + O=C(O)c1ccc(-c2c[nH]c3ncc(-c4ccccc4)cc23)cc1C1CCCC1 [GSK650394] (first compound 0.4 µM, partner dose 0.16 µM)
The “cleaved PARP positive nuclei fraction” value of the first is lower: 67.1% for the first, 131% for the second.

Going from `Nc1ncn([C@H]2C[C@H](O)[C@@H](CO)O2)c(=O)n1` [decitabine] + O=C(O)c1ccc(-c2c[nH]c3ncc(-c4ccccc4)cc23)cc1C1CCCC1 [GSK650394] (first compound 0.1 µM, partner dose 0.16 µM) to `Nc1ccn([C@@H]2O[C@H](CO)[C@@H](O)C2(F)F)c(=O)n1` [gemcitabine] + O=C(Nc1cccc(Cl)c1)Nc1ncc(CCNc2ncnc3ccsc23)s1 [SNS314] (first compound 0.0004 µM, partner dose 0.0008 µM), the “cleaved PARP positive nuclei fraction” value falls from 257% to 58.1%.

Compared with `CS(=O)(=O)CCNCc1ccc(-c2ccc3ncnc(Nc4ccc(OCc5cccc(F)c5)c(Cl)c4)c3c2)o1` [lapatinib] + O=S(=O)(c1ccccc1)N(CC(F)(F)F)c1ccc(C(O)(C(F)(F)F)C(F)(F)F)cc1 [T0901317] (first compound 0.8 µM, partner dose 1.4 µM), `CNC(=O)c1cc(Oc2ccc(NC(=O)Nc3ccc(Cl)c(C(F)(F)F)c3)cc2)ccn1` [sorafenib] + O=C(O)c1ccc(-c2c[nH]c3ncc(-c4ccccc4)cc23)cc1C1CCCC1 [GSK650394] (first compound 0.4 µM, partner dose 0.16 µM) is lower in “cleaved PARP positive nuclei fraction” value: 195% for the first, 64% for the second.

Going from `CC(C)C[C@H](NC(=O)[C@H](Cc1ccccc1)NC(=O)c1cnccn1)B(O)O` [Bortezomib] + NC(=O)Nc1cc(-c2cccc(F)c2)sc1C(=O)N[C@H]1CCCNC1 [AZD7762] (first compound 0.001 µM, partner dose 0.02 µM) to `CNC(=O)c1cc(Oc2ccc(NC(=O)Nc3ccc(Cl)c(C(F)(F)F)c3)cc2)ccn1` [sorafenib] + COc1cc2c(Oc3ccc4[nH]c(C)cc4c3F)ncnc2cc1OCCCN1CCCC1 [cediranib] (first compound 0.4 µM, partner dose 0.4 µM), the “cleaved PARP positive nuclei fraction” value rises from 58.2% to 72.2%.

First: Nc1nc(F)nc2c1ncn2[C@@H]1O[C@H](CO)[C@@H](O)[C@@H]1O [fludarabine] + NCC(=O)Nc1ccc(-n2nc(C(F)(F)F)cc2-c2ccc3c(ccc4ccccc43)c2)cc1 [OSU03012] (first compound 0.2 µM, partner dose 1 µM)
Second: Nc1ncn([C@H]2C[C@H](O)[C@@H](CO)O2)c(=O)n1 [decitabine] + O=c1cc(-c2cccc3c2Sc2ccccc2S3)oc(N2CCOCC2)c1 [KU55933] (first compound 0.1 µM, partner dose 1 µM)
The “cleaved PARP positive nuclei fraction” value of the first is higher: 829% for the first, 139% for the second.

Compared with `CC(C)C[C@H](NC(=O)[C@H](Cc1ccccc1)NC(=O)c1cnccn1)B(O)O` [Bortezomib] + COc1cc2c(Oc3ccc4[nH]c(C)cc4c3F)ncnc2cc1OCCCN1CCCC1 [cediranib] (first compound 0.001 µM, partner dose 0.4 µM), `CNC(=O)c1cc(Oc2ccc(NC(=O)Nc3ccc(Cl)c(C(F)(F)F)c3)cc2)ccn1` [sorafenib] + Cc1ccc(NC(=O)c2cccc(N(C)C)c2)cc1NC(=O)c1ccc(O)cc1 [ZM336372] (first compound 0.4 µM, partner dose 2 µM) is higher in “cleaved PARP positive nuclei fraction” value: 190% for the first, 415% for the second.

First: CC(C)C[C@H](NC(=O)[C@H](Cc1ccccc1)NC(=O)c1cnccn1)B(O)O [Bortezomib] + C[C@@H]1CCN(C(=O)CC#N)C[C@@H]1N(C)c1ncnc2[nH]ccc12 [CP690550] (first compound 0.001 µM, partner dose 1 µM)
Second: CNC(=O)c1cc(Oc2ccc(NC(=O)Nc3ccc(Cl)c(C(F)(F)F)c3)cc2)ccn1 [sorafenib] + CO[C@@H]1[C@H](N(C)C(=O)c2ccccc2)C[C@H]2O[C@]1(C)n1c3ccccc3c3c4c(c5c6ccccc6n2c5c31)C(=O)NC4 [Midostaurin] (first compound 0.4 µM, partner dose 0.08 µM)
The “cleaved PARP positive nuclei fraction” value of the first is higher: 73.7% for the first, 23.7% for the second.

Compared with `C[C@@H](Oc1cc(-c2cnn(C3CCNCC3)c2)cnc1N)c1c(Cl)ccc(F)c1Cl` [Crizotinib] + CCN(CC)CCCCNc1ncc2cc(-c3cc(OC)cc(OC)c3)c(NC(=O)NC(C)(C)C)nc2n1 [PD173074] (first compound 0.2 µM, partner dose 0.1 µM), `Cc1cc(Nc2cc(N3CCN(C)CC3)nc(/C=C/c3ccccc3)n2)n[nH]1` + C=CCn1c(=O)c2cnc(Nc3ccc(N4CCN(C)CC4)cc3)nc2n1-c1cccc(C(C)(C)O)n1 [MK1775] (first compound 0.04 µM, partner dose 0.02 µM) is lower in “cleaved PARP positive nuclei fraction” value: 172% for the first, 78.6% for the second.

Compared with `C[C@@H](Oc1cc(-c2cnn(C3CCNCC3)c2)cnc1N)c1c(Cl)ccc(F)c1Cl` [Crizotinib] + CO[C@@H]1[C@H](N(C)C(=O)c2ccccc2)C[C@H]2O[C@]1(C)n1c3ccccc3c3c4c(c5c6ccccc6n2c5c31)C(=O)NC4 [Midostaurin] (first compound 0.2 µM, partner dose 0.08 µM), `Nc1ccn([C@@H]2O[C@H](CO)[C@@H](O)C2(F)F)c(=O)n1` [gemcitabine] + OCCn1cc(-c2cnc3nnn(Cc4ccc5ncccc5c4)c3n2)cn1 [PF04217903] (first compound 0.0004 µM, partner dose 1 µM) is lower in “cleaved PARP positive nuclei fraction” value: 116% for the first, 66.7% for the second.

Going from `CC(C)C[C@H](NC(=O)[C@H](Cc1ccccc1)NC(=O)c1cnccn1)B(O)O` [Bortezomib] + COc1ccc2c(c1)CCC1C2CCC2(C)C(NCCCCCCN3C(=O)C=CC3=O)CCC12 [U73122] (first compound 0.001 µM, partner dose 0.4 µM) to `O=C(O)[C@@H]1[O][Sb](=[O])([O][Sb]2(=[O])[O][C@H]([C@H](O)CO)[C@H](O)[C@H](C(=O)O)[O]2)[O][C@H]([C@H](O)CO)[C@@H]1O` (stereo not given in full) [stibogluconate] + Cc1ccc(NC(=O)c2cccc(N(C)C)c2)cc1NC(=O)c1ccc(O)cc1 [ZM336372] (first compound 2 µM, partner dose 2 µM), the “cleaved PARP positive nuclei fraction” value falls from 99.8% to 74.8%.
